Our source for the binding values is patent publication US20230287081A1.

Amino acid sequences for entries named in this document (tags omitted). Residues count along the entry.
UniProt P51654, residues 25-559: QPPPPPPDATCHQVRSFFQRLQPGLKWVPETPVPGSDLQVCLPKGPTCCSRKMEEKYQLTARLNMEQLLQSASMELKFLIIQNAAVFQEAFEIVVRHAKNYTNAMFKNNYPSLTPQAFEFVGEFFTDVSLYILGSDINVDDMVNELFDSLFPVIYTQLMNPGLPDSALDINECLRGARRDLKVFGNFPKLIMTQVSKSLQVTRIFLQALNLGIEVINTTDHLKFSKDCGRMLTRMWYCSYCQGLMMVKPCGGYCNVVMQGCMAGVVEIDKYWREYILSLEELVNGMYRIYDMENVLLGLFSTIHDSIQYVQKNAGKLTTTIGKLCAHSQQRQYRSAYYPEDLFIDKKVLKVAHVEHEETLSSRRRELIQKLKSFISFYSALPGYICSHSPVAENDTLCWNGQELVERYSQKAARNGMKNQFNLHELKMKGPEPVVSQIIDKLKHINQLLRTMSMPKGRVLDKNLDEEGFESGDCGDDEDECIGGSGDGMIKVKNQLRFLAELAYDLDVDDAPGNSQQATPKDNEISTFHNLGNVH

Results are given in words; binding and its absence hold for the method and conditions named. Some binding calls cover weakened binding; strength is not graded here.

This test concerns the target hGPC-3 (BioLegend) (human) (UniProt P51654). In words: ELISA, hGPC-3 coated. (In general: In an ELISA, binding on a coated surface is turned into a signal by an enzyme label.)

B1: aGPC-3 (antibody, human IgG1, kappa, V domains shown)
VH: QVQLVQSGAEVKKPGASVKVSCKASGYTFTDYEMHWVRQAPGQGLEWMGALDPKTGDTAYSQKFKGRVTLTADKSTSTAYMELSSLTSEDTAVYYCTRFYSYTYWGQGTLVTVSS
VL: DVVMTQSPLSLPVTPGEPASISCRSSQSLVHSNRNTYLHWYLQKPGQSPQLLIYKVSNRFSGVPDRFSGSGSGTDFTLKISRVEAEDVGVYYCSQNTHVPPTFGQGTKLEIKR
Regarding B1, the binding result is “binds”.
